Experimental findings from US8658613 are described below.

Sequences of proteins named here, by UniProt entry; tags and fusion partners are left off. A change or cut given only in a name is not applied to a line headed by its entry. Residues count along the entry.
UniProt P01241, 27-217: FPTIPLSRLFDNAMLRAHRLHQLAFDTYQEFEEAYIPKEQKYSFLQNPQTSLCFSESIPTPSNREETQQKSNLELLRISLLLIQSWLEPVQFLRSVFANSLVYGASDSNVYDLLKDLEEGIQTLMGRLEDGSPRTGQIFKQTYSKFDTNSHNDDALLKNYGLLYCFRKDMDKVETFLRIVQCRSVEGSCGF
UniProt P02452: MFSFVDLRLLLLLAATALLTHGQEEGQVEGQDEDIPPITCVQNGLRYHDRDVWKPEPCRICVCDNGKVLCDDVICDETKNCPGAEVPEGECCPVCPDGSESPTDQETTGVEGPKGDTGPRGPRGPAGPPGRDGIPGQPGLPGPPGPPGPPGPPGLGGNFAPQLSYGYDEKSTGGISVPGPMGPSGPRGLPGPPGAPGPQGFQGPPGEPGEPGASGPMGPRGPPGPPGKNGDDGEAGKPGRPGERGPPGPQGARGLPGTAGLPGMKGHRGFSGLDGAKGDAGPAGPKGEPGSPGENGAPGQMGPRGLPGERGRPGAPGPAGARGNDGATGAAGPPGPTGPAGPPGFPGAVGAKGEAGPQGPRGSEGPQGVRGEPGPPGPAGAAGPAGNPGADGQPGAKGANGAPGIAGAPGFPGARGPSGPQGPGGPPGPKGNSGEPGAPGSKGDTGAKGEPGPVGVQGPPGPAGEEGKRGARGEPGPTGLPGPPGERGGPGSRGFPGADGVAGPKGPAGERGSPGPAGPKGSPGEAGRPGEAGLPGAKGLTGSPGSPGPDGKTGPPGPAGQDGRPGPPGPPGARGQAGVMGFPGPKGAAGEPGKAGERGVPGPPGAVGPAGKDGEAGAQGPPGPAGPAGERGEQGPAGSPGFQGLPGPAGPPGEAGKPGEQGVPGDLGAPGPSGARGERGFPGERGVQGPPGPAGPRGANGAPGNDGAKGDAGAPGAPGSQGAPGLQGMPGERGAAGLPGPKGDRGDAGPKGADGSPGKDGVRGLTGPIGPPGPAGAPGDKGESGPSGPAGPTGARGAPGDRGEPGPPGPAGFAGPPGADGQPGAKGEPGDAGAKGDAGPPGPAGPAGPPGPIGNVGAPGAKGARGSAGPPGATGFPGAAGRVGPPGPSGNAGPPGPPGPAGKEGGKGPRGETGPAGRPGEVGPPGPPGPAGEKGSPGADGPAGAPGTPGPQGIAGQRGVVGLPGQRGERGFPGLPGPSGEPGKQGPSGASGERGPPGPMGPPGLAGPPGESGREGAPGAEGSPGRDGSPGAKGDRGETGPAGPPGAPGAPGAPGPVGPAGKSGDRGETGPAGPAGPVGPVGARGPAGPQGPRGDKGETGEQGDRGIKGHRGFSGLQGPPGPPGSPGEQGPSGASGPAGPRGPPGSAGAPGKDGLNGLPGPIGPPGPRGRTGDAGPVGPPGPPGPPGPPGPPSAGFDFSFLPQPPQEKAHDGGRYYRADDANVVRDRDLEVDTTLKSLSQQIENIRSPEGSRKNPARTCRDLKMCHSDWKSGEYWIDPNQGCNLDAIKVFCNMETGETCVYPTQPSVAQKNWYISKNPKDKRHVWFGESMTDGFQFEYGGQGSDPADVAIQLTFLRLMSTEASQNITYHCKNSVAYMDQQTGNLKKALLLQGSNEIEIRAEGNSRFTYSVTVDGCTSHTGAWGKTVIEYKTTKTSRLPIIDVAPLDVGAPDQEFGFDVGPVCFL

For some assays here: A weaker result is weaker than the reference pair of the same experiment. For some assays here: For at least one entry, the source does not settle the construct or the ends of the probe. For some assays here: No signal at the amounts used counts as a negative.

The first series has as its system Type I collagen C-telopeptide (CTx) peptide, 8 aa segment (Homo sapiens). In words: binding assay. As to conditions: beacon fluorescence; 8-aa segment not giving the response; label: 5' TYE665, 3' Iowa Black RQ; single-stranded DNA; variant of CTx 2/13/19/20/25/32 R.
Turning to “GGTGGTGTTGGCTCC [CTx 2R-2h 15-base beacon]”, the binding result is given as “no binding”.

In the next series the target is Natural human growth hormone (somatotropin) (Homo sapiens) (UniProt P01241). The series can be described thus: binding assay. The conditions noted are these: ELISA-like plate assay; less than r-hGH; single-stranded DNA. On the technique in general: In an ELISA, binding on a coated surface is turned into a signal by an enzyme label.
As for “ATCCGTCACACCTGCTCTAAAACATGGGCCCAATTAGGCGTGATCCAACCCGTCTGGTGTTGGCTCCCGTAT [hGH aptamer SEQ 388]”, the binding result is reported as “binds more weakly”. As to “ATCCGTCACACCTGCTCTGGGGTGTATCCTTTTATGGATCTGCGAGAATAAGTCTGGTGTTGGCTCCCGTAT [hGH aptamer SEQ 336]”, the binding result is “binds more weakly”. Same read-out and setting: next, “ATCCGTCACACCTGCTCTAGGATTTTTGTTATGTCGGCCACGATGGGGACCCCGTGGTGTTGGCTCCCGTAT [hGH aptamer SEQ 348]”: “binds more weakly”; “ATCCGTCACACCTGCTCTTGGGTGAATCAATTGTTCGTACTCCACGTGATTCTGTGGTGTTGGCTCCCGTAT [hGH aptamer SEQ 338]”: “binds more weakly”. For the sequence “ATACGGGAGCCAACACCATAAGCAGAGAACTACAAGACGATCCCATATTCCAAAGAGCAGGTGTGACGGAT [hGH aptamer SEQ 343]”, the binding result is “binds more weakly”. Still for that read-out and setting: next, “ATACGGGAGCCAACACCACATGACGGGTGACTAAAAGACGAAATCTCCCAATTAAGAGCAGGTGTGACGGAT [hGH aptamer SEQ 377]”: “binds more weakly”; “ATACGGGAGCCAACACCAGGTTGGCGTCAAAAGAAATAAGGGATATACATTAGAGAGCAGGTGTGACGGAT [hGH aptamer SEQ 345]”: “binds more weakly”; “ATACGGGAGCCAACACCACCTGAGCGCCGGCAGCACTCACTATTTGTCCCCGCAAGAGCAGGTGTGACGGAT [hGH aptamer SEQ 379]”: “binds more weakly”.

A further series addresses Type I collagen C-telopeptide (CTx) peptide, 26 aa (Homo sapiens) (UniProt P02452). In words: SELEX. The conditions noted are these: F and R forms dominated aptamer pool (12 of 38 clones); single-stranded DNA.
Turning to “ATCCGTCACACCTGCTCTAGACGAATATTGTATCCTCATTAGATCAAAAACGGGTGGTGTTGGCTCCCGTAT [CTx 2/13/19/20/25/32 R]”, the selection result is listed as “selected”.

Regarding “ATACGGGAGCCAACACCACCCGTTTTTGATCTAATGAGGATACAATATTCGTCTAGAGCAGGTGTGACGGAT [CTx 2/13/19/20/25/32 F]”, the selection result is reported as “selected”.
